Assays:
[1] = tested on: MDA-MB-231 cells; assay: CellTiter-Glo cell viability, MDA-MB-231; format: cell-based; conditions: 72 h, read-out: Absolute IC50
Description: (§1) The cell viability of 50 cancer cell lines was studied after treatment with Compound 121. Inhibition concentration values at 50% (IC50) were determined using CellTiter-Glo luminescent cell viability assay after incubation with different compound concentrations. GI50 values were determined according to the examples described above. Each cell line was treated with Compound 121, a standard chemotherapy drug as a reference control, and culture medium as a vehicle control.
(§2) All cells were cultured in media supplemented with 10-15% FBS at 37° C. in the presence of 5% CO2 and at 95% humidity. The culture medium was purchased from GIBCO or Sigma, USA. Cisplatin was chosen as the reference control and purchased from Hospira Australia Pty Ltd. The cell lines studied are presented in Table 5.
(§3) Cells were harvested during a logarithmic growth period and cell number count was determined using Count-star. Cell concentrations were adjusted to 4.44×10^4 cells/mL with respective culture medium. […]
(§4) 10 μL of culture medium was added to each well of plate A for TO reading. […]
(§5) IC50 and GI50 values for each of the 50 cell lines are presented in Table 6 and were calculated based on the dose-response curves depicted in FIGS. 1-50. […] The formula for calculating survival rate was calculated by the formula: […]

[2] = tested on: HeLa cells; assay: CellTiter-Glo cell viability, HeLa; format: cell-based; conditions: 72 h, read-out: Absolute IC50
Description: as §1, §2, §3, §4, §5

N.N.[Cl][Pt][Cl] [Cisplatin, reference compound]
IC50 [1]: 23.7 µM
IC50 [2]: 0.33 µM
